The values below come from PubChem BioAssay AID720601 (Broad Institute, 2013).

A short description of this experiment: cytotoxicity in immortalized mouse myoblasts – cell-based, Alamar Blue fluorescence, 8/24/48 h, dry powder, cytotoxicity control for HRAS target identification, dose response (AID 720601). The note with it: C2C12 mouse myoblast viability, at 35 µM, stronger effect = lower value. In general terms: The colour change of resazurin is a common sign of viable cells or microbes.

The list shows a part of the results. The main result of the screen is listed elsewhere. These columns were measured beside it and carry no call.

`COC(=O)c1ccc([C@@H]2c3[nH]c4ccccc4c3C[C@@H](C(=O)OC)N2C(=O)CCl)cc1`: the activity runs as follows: (8 h viability change) 6.88%; (24 h viability change) -10.9%.
On the same counts, the results for `C#CCCCC(=O)NCCOCCOCCOc1ccc(N(C(=O)CCl)C(C(=O)NCCc2ccccc2)c2cccs2)cc1Cl` (stereo not given) are 3.92% and -9.34%.
With `COc1ccc(N(C(=O)CCl)C(C(=O)NCCc2ccccc2)c2cccs2)cc1Cl` (stereo not given), the activity (8 h viability change) came out at 1.7% and the activity (24 h viability change) was -12.3%.
Take `CC(C)(C)OC(=O)NCCOCCOCCOc1ccc(N(C(=O)CCl)C(C(=O)NCCc2ccccc2)c2cccs2)cc1Cl` (stereo not given): the activity is 3.69% (8 h viability change) and -9.96% (24 h viability change).
On the same counts, the results for `Cc1onc(C(=O)N2CCN(C(c3ccc(Cl)cc3)c3ccc(Cl)cc3)CC2)c1[N+](=O)[O-]` are 0.389% and -11.1%.
